Measurements reported in PubChem BioAssay AID743121 (NCATS, 2013).

Aim: 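Knock-downs that sensitise breast cancer cells to camptothecin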 (primary screen)
Cell system: MDA-MB-231 cells, a human breast cancer line
Knock-down reagent: single siRNA against human genes, 20 nM siRNA (0.8 pmol per well)
Time to read-out: 120 h (drug added 48 h after transfection, read 72 h later)
Conditions: camptothecin 20 nM (about EC30) for 72 h; vehicle 0.1% DMSO in parallel plates
Measured: 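CellTiter-Glo ATP signal, scaled to control siRNA as percent viability; sensitisation given as log2 of untreated divided by camptothecin-treated viability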
Direction: log2 vehicle/camptothecin viability: higher = stronger sensitisation to camptothecin
Hit rule: 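Each gene scored by redundant siRNA activity (RSA) over its individual siRNA ratios; a gene is called active at p < 0.001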
The whole screen tested about 26,000 reagents; this is a random part of them. In the full data, 167 (0.63%) were called active. 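Calls are per gene from RSA p-values that are not deposited; an individual active-marked siRNA can sensitise only weakly.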 Reagents against one gene are numbered here. Further read-outs or replicates are left out here. Reagent sequences are not shown.

RSPO3 #1
- log2 vehicle/camptothecin viability: -0.234
- activity call: inactive

RSPO3 #2
- log2 vehicle/camptothecin viability: -0.0487
- activity call: inactive

RSPO3 #3
- log2 vehicle/camptothecin viability: -0.291
- activity call: inactive

GDPD3 #1
- log2 vehicle/camptothecin viability: -0.0794
- activity call: inactive

GDPD3 #2
- log2 vehicle/camptothecin viability: -0.124
- activity call: inactive

GDPD3 #3
- log2 vehicle/camptothecin viability: 0.158
- activity call: inactive

GDPD3 #4
- log2 vehicle/camptothecin viability: -0.188
- activity call: inactive

GRIA2 #1
- log2 vehicle/camptothecin viability: 0.337
- activity call: inactive

GRIA2 #2
- log2 vehicle/camptothecin viability: 0.000328
- activity call: inactive

GRIA2 #3
- log2 vehicle/camptothecin viability: 0.293
- activity call: inactive

GRIA2 #4
- log2 vehicle/camptothecin viability: -0.068
- activity call: inactive
